# Test results published in PubChem BioAssay AID1347423 (Functional Genomics Laboratory (NCATS/FGL), 2020).
# Out of some 52,000 sequences screened, about 210 (0.4%) were called active.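 The calls were made as follows: active = gene whose silencing raises cell survival under the drug, median off-target-corrected z-score across its silencing RNAs 2 or more; inactive = the rest.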 The list shows a part of the results.
# Test: Resistance to Poly (ADP-Ribose) Polymerase inhibitor: Gene Identification via Genome-wide siRNA Screen
# Details: mouse BRCA2 R2336H ES cells, olaparib, CellTiter-Glo viability; stronger effect = higher value
# How it was run: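 Mouse BRCA2 R2336H ES cells were reverse-transfected with siRNA (20 nM final), treated at 48 h with 500 nM olaparib, and read by CellTiter-Glo after 72 h. Scores: MAD-based z per siRNA, median per gene, seed off-target correction.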
row,Sequence,z-score
1,GGGAACUCAGCUUCACCAATT against Trim47,inactive: -1.84
2,GGGACCAUACACUCCAUAUTT against Olfr1507,inactive: 0.0912
3,CGGUCAUUAAAACUUACAGTT against Hells,inactive: 0.472
4,GGUUGCUAGUUUCUGAAAATT against C130074G19Rik,inactive: 0.177
5,GGACAACUCUCAUGUAAUATT against A630047E20Rik,inactive: -1.48
6,GAUUGUGGACUUAAGGAUUTT against V1rg6,inactive: -0.36
7,GCUUUAUUGAUUCCACUAGTT against C630007C17Rik,inactive: 0.359
8,GGCCAAUGUCUUCUUCAAGTT against Arpc3,inactive: -1.12
9,GGAGCUACCAAGUUACUUCTT against Emr4,inactive: 0.742
10,GGAGGGUGAUCUCAUUGAATT against Prkcm,inactive: -2.15
11,CCGGGACAUAGAGGAAAUUTT against Cabp1,inactive: -2.2
12,GGCAACUAAGGCUAAGAAGTT against Hist1h1e,inactive: 0.15
13,GGCUAUACCUUGGUAGAUATT against Parvg,inactive: -0.205
14,CCUGGACCAAAAUUUUGUGTT against Cyp2j5,inactive: 1.43
15,GGUAUUGGUGCAAUUGUCCTT against Olfr891,inactive: 0.712
16,GGUAAUUGCUGGCUUUAAUTT against Pfdn2,inactive: -1.75
17,GGCUGGAAGCGUAAUUCACTT against Trim36,inactive: 0.48
18,GGACAUUAUCACUUUGGAATT against Casp2,inactive: 0.491
19,GGAGAACCCAUUCAAGUCCTT against Suhw2,inactive: 1.19
20,GGACUUGAAUGAUAAGUUCTT against Cyp1a1,inactive: 0.408
21,GGAUGAAGUGGAAGAUUACTT against Birc1b,inactive: 0.299
22,GGAGCUGGUGGAUCUGAAGTT against D7Wsu128e,inactive: -0.44
23,GUGCAUGCAGUGUUGUUUUTT against Magea5,inactive: 0.299
24,GGUUACGGAUAUGGAUCUGTT against Krtap8-2,inactive: -0.67
25,GGGCACAGGCACUAAAAUGTT against Sbk,inactive: -0.689
26,GCCUAGCAGUGCCAGGAAATT against Epn2,inactive: -0.533

row,Sequence,z-score
1,GCCACUCAAAGUUCGAAGGTT against BC003277,inactive: -0.0471
2,GGUCCAGAUUCGAACACCATT against 5430437P03Rik,inactive: 2.95
3,CCAGGAAGUGUUGAUGUGCTT against Gal,inactive: -0.782
4,GCUCUAUGGAGACCUAAAGTT against Sdha,inactive: -1.88
5,GGUAAUAAAGCUCUUACAGTT against 1600031M04Rik,inactive: 0.289
6,GCAAACCAUGCCUAAUGGATT against 4632415K11Rik,inactive: -0.567
7,CGACAACACAGUUAUUAUUTT against Pld1,inactive: 0.299
8,GGAAUAUCACCAAACCAAATT against 2310057J18Rik,inactive: -0.058
9,GGAAGAGGUGCUACCUCUATT against Crlz1,inactive: 0.248
10,CCAAGUACAAAUGGUGUGATT against Vdac2,inactive: 0.262
11,GUUCUUAUAUAGGAUUGUGTT against Gm1620,inactive: 0.479
12,GGAUCAAUGGUGUCUUUGUTT against Pdzk1,inactive: -1.84
13,GGCAGAUGUGUUUGCUUUUTT against Pbk,inactive: 0.896
14,GCUGUAAAAUUGUUCCUAATT against 1700081D17Rik,inactive: -0.113
15,GGGAGAGAUACGGAAAGAGTT against 4932417I16Rik,inactive: -1.8
16,CCAUCGACUGUUUCAUCCUTT against Olfr987,inactive: 0.248
17,GGAACUUCAGAGUAAACCUTT against H2-T23,inactive: 0.428
18,GGUGAGCCUGAGAUUUAAATT against Mcpt6,inactive: -0.905
19,GGACUUUCUGAUGGACUUGTT against Ng23-pending,inactive: -0.0306
20,GCUGGAGAUCUAAAAACAGTT against Mphosph10,inactive: -0.233
21,GCAGCACAGUACUAUCUCGTT against Ttc4,inactive: -1.67
22,CCAAGAUUCAUAAGAAGGCTT against Tas2r131,inactive: 0.58
23,GGAUAUCGAGGAUGUACUGTT against 1110008L20Rik,inactive: -1.08
24,GCAGUGUGUCCUAAAGCUCTT against G430090F17Rik,inactive: 0.366
25,GGACCUGGAUGUGUCCUAUTT against Lrfn4,inactive: 0.0646
26,GGAACCAGAAGAAUCAUUGTT against Casp4,inactive: 0.0565

row,Sequence,z-score
1,CCAAUUUUACCUGACUUCGTT against Cova1,inactive: -0.0851
2,GUUCAGACAGAAACCCAGUTT against Fxyd3,inactive: -0.0885
3,GCAUCAAUUGUCAGGAAAUTT against Rev3l,inactive: -0.211
4,GCCGAGAAUGAAGUUAGAATT against Mybl1,inactive: 0.133
5,GCUUAUUCCCAGGAGACCATT against Dmrtc2,inactive: 1.18
6,CCAGCCAUCUGCCAGUAUATT against LOC381438,inactive: -0.552
7,GUGUCUCUGGCUGUUCUGATT against Atp5o,inactive: -1.02
8,GCAUGGAUCCCUUUUCGAUTT against Tgfbr1,inactive: 0.0538
9,CCAGUUACUAGUAAUACUCTT against Mcm3ap,inactive: -0.797
10,GCAUGUAUAACAGACCCAUTT against 4921511H03Rik,inactive: 1.1
11,GCCACCAAUGUGCUUACAUTT against Cfhrb_4/2,inactive: -1.11
12,GGGAAACUGACCAUCAAAATT against Cbara1,inactive: 0.878
13,GGUUCUGUCCGCUUUUUGGTT against Coasy,inactive: 1.65
14,GGAGUGAGACAAGUGUAUGTT against Sprr1a,inactive: 1.01
15,AGUGUAAGAGCCUGUUUAUTT against Xlr,inactive: 0.891
16,CCUGGGUUCUUUACCAUAATT against Mak10,inactive: 0.635
17,GCUUACCAUGAAAAUAUUGTT against Kcnip1,inactive: -0.579
18,GGUUCUGGUAUAAGUUAACTT against B230362M20Rik,inactive: -0.366
19,GCUAGGAGCUAGGAAUCCGTT against Pdzk2,inactive: 0.624
20,GCGCAUCCGUGUGAAAUUCTT against 1700034H14Rik,inactive: 0.117
21,GGGUUUGACUACAAGACUUTT against Mat2a,inactive: 2.15
22,GCCAAGGAGAUCACACUUATT against Chrnd,inactive: -0.735
23,GGGUGUCAACCCUUUAGAUTT against 4930565N07Rik,inactive: 0.532
24,CCUUGAGAAGUUAAACCAUTT against Specc1,inactive: -0.483
25,GGCACUUCUUUCCAAGACGTT against 9830147J24Rik,inactive: 2.16
26,CCUCAAAAUGGCUAUGGACTT against 1520401A03Rik,inactive: 1.26

row,Sequence,z-score
1,CCUGAAAAGCUAUUGGGUATT against Baat,inactive: -0.796
2,GGAGAAGACUAUAAGCUUATT against Tmem5,inactive: 0.952
3,GGCUCAAGGUCUUUUCAACTT against Olfr702,inactive: 0.976
4,GGAAGUGCUGAAGGUGUACTT against Spire2,inactive: 0.683
5,GGUGAAUUUACUCCUGAAATT against Asxl2,inactive: -1.06
6,GGAAUUGACUGUGUUAAGATT against Zfr,inactive: 0.749
7,GGUCAGGAAACCAUCAUGATT against Ysg2,inactive: 1.85
8,GGUGGAAAUGGGAGAAUUUTT against Sparc,inactive: -0.346
9,GCUCAGAAACACCUUCUGGTT against 2310011J03Rik,inactive: 0.201
10,CCUUGACCCAGAUUGAGAATT against BC024502,inactive: -0.941
11,GUUGAUCGUGCAGAUCAAGTT against Diras1,inactive: 0.532
12,GCUACGUAAACGGAAGGCUTT against 3830405G04Rik,inactive: 0.0565
13,GGGUUAUACCAAGUCCAUUTT against Mapk1,active: 3.33
14,GGUAAACGAUGUACAGUUGTT against Notch2,inactive: 0.248
15,GGUAAAAGCUGUUUGAGAGTT against 2010002N04Rik,inactive: 1.5
16,GGCCAUGUUCGAGCAAACUTT against 4833422F06Rik,inactive: 0.85
17,GGUGAUGUGCCCAUGACAGTT against Ap1m2,inactive: 1.22
18,GCCUUCUUCUACCAUAGCATT against Thy28,inactive: 0.597
19,GGAUGAGCAGAAAUGUGUATT against AI840980,inactive: -0.347
20,GGAUUGCAAAUGGUUUAAUTT against Chchd2,inactive: 0.963
21,GGAUCAUAAAGUCAAAGCUTT against V1re12,inactive: -0.36
22,GGAGGAGACUCCUAAGAAGTT against BC016188,inactive: 0.636
23,GGAACAGGAUACGUACGCUTT against Acat1,inactive: 0.362
24,GGAUGAGUCUUUCUAGUUATT against Nipa1,inactive: -0.0749
25,CCUUCAAUGAAAUAAGCACTT against Olfr1155,inactive: 0.54
26,GGAAGUUUACCAGUCUAUCTT against Pik3c2a,inactive: -1.04

# Rewritten with bars between the fields: part of the list above
row | Sequence | z-score
16 | GGCCAUGUUCGAGCAAACUTT against 4833422F06Rik | inactive: 0.85
17 | GGUGAUGUGCCCAUGACAGTT against Ap1m2 | inactive: 1.22
18 | GCCUUCUUCUACCAUAGCATT against Thy28 | inactive: 0.597
19 | GGAUGAGCAGAAAUGUGUATT against AI840980 | inactive: -0.347
20 | GGAUUGCAAAUGGUUUAAUTT against Chchd2 | inactive: 0.963
21 | GGAUCAUAAAGUCAAAGCUTT against V1re12 | inactive: -0.36
22 | GGAGGAGACUCCUAAGAAGTT against BC016188 | inactive: 0.636
